Values joined by “and” are separate entries in the source; they are usually repeats but may differ in a detail not shown here. Identical values can stand only once. Some of the results follow. Repeats in this data set agree poorly, so a single value says little.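 HEK293T cells were given each compound shortly before transfection with a reporter in which red mCherry is followed by the SARS-CoV-2 frameshift element and then GFP in the −1 frame, so GFP appears only after frameshifting.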

This test has as its system HEK293T. As to the kind of experiment: percent viability (nuclei count) relative to control; higher = more viable cells. The conditions noted are these: 10 µM; 24 h.
Consider `COc1cc(OC)c(C(=O)CCCN2CCCC2)c(OC)c1`, for which the percent viability is 178%.
With `CN1CCN(CCCN2c3ccccc3Sc3ccc(S(=O)(=O)N(C)C)cc32)CC1` [thioproperazine] the figure was 360%; with `CCOC(=O)C1=C(C)NC(C)=C(C(=O)OC)C1c1cccc([N+](=O)[O-])c1` (stereo not given) [nitrendipine], 376%; with `N#Cc1cc(NC(=O)C(=O)O)c(Cl)c(NC(=O)C(=O)O)c1` [lodoxamide], 326%.
In the case of `CC(C)NNC(=O)c1ccncc1` [iproniazid], the percent viability is 235% and 350%.

Values taken from the supplement of paper PMC8256030.
